This note sets out measurements from paper PMC4377584.

By UniProt entry, the sequences of proteins in these tests, tags left out. Where a name states a change or a piece, a line headed by the entry shows the natural chain unless it says otherwise.
UniProt Q5VZM2: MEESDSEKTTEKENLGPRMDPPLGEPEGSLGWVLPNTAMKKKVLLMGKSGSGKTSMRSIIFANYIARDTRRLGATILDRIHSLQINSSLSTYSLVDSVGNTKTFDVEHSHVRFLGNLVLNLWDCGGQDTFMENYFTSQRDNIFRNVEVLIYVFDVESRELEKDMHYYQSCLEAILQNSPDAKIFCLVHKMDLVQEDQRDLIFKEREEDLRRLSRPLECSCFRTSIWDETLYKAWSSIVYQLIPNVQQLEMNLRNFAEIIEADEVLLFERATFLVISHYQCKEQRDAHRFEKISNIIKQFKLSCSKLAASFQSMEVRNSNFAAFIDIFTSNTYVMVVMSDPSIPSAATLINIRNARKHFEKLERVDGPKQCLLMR
UniProt Q9NXC5: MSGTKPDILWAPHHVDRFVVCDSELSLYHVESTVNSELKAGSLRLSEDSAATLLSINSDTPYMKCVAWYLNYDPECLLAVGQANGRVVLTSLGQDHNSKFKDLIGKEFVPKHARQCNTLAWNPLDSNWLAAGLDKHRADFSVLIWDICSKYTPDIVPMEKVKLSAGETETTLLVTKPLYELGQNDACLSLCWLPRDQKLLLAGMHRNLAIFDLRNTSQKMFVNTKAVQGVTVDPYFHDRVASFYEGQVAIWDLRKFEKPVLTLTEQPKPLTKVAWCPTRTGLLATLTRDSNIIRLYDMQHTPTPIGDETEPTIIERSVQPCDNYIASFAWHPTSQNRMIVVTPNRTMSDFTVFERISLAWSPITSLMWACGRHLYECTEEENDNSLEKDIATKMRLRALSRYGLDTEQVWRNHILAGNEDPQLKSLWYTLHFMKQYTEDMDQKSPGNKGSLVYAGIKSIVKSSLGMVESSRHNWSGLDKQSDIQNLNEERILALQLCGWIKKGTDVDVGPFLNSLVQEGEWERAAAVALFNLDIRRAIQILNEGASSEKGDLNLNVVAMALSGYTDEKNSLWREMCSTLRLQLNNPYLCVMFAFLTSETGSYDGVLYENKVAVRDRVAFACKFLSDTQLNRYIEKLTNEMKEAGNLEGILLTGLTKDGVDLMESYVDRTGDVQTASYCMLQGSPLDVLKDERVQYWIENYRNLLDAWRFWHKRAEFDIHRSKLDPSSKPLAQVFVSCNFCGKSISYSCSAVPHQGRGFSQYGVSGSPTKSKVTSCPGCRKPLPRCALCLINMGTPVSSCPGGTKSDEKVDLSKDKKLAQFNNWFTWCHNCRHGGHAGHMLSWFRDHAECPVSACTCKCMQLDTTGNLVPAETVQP
UniProt O75140: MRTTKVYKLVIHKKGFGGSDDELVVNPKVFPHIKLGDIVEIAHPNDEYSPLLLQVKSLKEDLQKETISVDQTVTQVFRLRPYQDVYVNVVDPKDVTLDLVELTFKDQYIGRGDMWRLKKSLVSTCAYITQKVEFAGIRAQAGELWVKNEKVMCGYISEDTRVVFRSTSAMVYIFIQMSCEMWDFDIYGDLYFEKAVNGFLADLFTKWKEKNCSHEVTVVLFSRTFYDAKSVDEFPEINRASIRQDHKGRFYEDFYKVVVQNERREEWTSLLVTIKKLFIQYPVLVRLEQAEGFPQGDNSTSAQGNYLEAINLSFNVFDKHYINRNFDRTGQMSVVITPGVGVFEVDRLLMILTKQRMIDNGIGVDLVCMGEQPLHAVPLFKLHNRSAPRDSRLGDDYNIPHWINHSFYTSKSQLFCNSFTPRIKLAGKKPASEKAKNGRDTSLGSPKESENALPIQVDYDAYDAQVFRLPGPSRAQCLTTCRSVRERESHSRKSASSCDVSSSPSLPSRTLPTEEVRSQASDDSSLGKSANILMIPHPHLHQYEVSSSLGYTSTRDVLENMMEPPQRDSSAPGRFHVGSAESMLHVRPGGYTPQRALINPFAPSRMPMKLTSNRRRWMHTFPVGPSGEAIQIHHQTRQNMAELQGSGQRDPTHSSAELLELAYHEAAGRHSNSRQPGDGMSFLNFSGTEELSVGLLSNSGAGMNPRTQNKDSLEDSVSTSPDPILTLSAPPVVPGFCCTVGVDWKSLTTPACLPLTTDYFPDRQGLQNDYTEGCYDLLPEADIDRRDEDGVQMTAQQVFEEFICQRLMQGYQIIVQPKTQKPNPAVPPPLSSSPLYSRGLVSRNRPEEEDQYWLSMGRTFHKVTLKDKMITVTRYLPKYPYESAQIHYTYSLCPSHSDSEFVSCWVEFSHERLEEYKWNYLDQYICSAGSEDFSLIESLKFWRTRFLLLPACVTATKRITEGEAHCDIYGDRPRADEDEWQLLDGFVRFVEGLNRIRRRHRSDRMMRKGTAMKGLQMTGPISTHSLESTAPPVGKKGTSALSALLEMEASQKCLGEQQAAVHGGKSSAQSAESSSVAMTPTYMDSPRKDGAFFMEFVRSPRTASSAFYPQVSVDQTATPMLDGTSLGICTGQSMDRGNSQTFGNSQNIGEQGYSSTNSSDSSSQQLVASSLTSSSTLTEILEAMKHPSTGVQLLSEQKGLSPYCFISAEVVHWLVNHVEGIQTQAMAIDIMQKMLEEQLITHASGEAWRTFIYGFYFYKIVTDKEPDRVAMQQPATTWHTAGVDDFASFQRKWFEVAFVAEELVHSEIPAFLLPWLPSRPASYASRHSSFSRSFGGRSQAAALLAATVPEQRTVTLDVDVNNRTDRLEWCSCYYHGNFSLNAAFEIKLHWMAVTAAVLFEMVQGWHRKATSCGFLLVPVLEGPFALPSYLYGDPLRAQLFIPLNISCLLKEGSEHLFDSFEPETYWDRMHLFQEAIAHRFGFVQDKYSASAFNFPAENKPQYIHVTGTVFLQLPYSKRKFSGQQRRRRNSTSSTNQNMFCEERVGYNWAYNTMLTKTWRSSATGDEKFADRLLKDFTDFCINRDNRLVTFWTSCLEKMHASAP

Test [1] has as its target T1, NPRL2 (endogenous, HEK293) (human (endogenous in HEK293)) (UniProt Q8WTW4).
T1 sequence: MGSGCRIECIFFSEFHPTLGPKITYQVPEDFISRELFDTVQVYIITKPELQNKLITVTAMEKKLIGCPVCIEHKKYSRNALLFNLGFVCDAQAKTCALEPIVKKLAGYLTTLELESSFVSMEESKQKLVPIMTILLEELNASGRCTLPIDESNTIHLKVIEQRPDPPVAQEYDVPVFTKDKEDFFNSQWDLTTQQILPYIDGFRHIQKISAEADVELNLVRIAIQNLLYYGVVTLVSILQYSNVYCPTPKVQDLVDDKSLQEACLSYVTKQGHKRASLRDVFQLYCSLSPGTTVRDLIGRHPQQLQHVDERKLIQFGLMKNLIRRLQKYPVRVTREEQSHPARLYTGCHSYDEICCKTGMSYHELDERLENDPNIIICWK
Description: co-IP; endogenous proteins; HEK293 cells transduced with GFP or Sestrin2-overexpressing lentiviruses for 48 h; IP with RagB antibody (Fig. 3C) or NPRL2 antibody (Fig. 3D); immunoblot. (In general: Immunoblotting shows a protein as a band on a membrane.)

The next test concerns the target T2, Flag-tagged NPRL2 (UniProt Q8WTW4).
T2 sequence: T1 sequence
The test can be described thus: co-IP; HEK293 cells co-transfected with HA-tagged Sestrin2 and GATOR1 and GATOR2 components; Flag-NPRL2 (Fig. 2A) or Flag-WDR24 (Fig. 2B, S4) IPed with Flag antibody; immunoblot.

The target of a further test is T3, Sestrin1 (UniProt Q9Y6P5).
T3 sequence: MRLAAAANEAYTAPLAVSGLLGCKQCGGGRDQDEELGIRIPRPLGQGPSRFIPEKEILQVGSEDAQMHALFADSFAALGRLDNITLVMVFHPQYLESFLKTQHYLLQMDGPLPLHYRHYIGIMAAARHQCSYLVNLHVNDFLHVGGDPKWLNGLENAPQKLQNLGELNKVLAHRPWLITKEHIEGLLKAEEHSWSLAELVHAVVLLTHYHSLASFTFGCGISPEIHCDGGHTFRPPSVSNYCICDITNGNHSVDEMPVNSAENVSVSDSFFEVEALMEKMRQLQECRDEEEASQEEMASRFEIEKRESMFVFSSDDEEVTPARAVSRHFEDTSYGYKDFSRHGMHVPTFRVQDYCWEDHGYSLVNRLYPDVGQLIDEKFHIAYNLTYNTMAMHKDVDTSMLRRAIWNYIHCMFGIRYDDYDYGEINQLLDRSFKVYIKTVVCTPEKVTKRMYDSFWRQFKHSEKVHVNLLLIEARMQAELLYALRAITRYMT
Description: co-IP; HEK293 cells co-transfected with Sestrin2 (or Sestrin1, or truncated Sestrin2) and all GATOR2 components, in Fig. S3D also the GATOR1 components; Sestrin2 IPed (Flag antibody in Fig. 1C); lysis buffer with 0.3% CHAPS; immunoblot.

The next test addresses T4, Flag-tagged WDR24 (UniProt Q96S15).
T4 sequence: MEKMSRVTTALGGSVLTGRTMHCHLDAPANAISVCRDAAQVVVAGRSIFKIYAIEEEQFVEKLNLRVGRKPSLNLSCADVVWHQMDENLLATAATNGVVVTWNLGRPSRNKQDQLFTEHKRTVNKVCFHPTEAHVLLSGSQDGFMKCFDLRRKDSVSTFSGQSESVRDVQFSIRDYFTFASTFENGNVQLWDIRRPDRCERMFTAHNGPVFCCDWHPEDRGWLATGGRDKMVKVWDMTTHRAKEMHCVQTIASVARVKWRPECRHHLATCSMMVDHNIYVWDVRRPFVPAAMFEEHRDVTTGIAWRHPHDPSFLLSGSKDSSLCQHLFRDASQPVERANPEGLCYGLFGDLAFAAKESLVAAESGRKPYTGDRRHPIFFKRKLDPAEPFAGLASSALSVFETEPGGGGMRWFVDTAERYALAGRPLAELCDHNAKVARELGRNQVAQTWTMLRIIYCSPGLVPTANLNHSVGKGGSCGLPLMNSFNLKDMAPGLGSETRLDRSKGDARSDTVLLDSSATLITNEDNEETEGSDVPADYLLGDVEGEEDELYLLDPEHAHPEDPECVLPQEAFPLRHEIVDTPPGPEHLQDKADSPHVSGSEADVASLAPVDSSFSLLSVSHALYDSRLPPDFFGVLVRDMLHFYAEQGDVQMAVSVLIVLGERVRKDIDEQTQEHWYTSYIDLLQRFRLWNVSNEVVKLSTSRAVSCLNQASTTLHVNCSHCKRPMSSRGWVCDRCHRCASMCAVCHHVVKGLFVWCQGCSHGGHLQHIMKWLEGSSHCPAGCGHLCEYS
Description: co-IP; HEK293 cells co-transfected with HA-tagged Sestrin2 and GATOR1 and GATOR2 components; Flag-NPRL2 (Fig. 2A) or Flag-WDR24 (Fig. 2B, S4) IPed with Flag antibody; immunoblot.

The next test has as its target T5, Flag-tagged Sestrin2 (UniProt P58004).
T5 sequence: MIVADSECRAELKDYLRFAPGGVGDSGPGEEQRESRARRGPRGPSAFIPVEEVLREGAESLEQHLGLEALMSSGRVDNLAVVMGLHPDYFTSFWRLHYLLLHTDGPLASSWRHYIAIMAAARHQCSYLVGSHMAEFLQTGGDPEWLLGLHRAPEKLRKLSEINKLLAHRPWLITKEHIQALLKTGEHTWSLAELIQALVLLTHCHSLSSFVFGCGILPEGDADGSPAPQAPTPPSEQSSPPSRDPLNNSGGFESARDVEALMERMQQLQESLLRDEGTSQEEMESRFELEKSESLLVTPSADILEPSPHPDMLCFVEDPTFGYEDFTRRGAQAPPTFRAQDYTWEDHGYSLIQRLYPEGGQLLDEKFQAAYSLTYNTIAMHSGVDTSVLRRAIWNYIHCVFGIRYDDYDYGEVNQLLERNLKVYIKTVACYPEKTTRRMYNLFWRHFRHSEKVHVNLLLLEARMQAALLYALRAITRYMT
Description: co-IP; HEK293 cells co-transfected with Sestrin2 (or Sestrin1, or truncated Sestrin2) and all GATOR2 components, in Fig. S3D also the GATOR1 components; Sestrin2 IPed (Flag antibody in Fig. 1C); lysis buffer with 0.3% CHAPS; immunoblot.

These are yes or no findings as the source states them, for the method shown. Binding seen in cells or lysates may run through a third protein. Some results given as binding are weak or reduced against the parent protein; the word gives no strength. For some assays here: Where a sequence is shown, tags or fusion partners need not be part of it.

Regarding “RagB (endogenous, HEK293) (from UniProt Q5VZM2 1-374)”, in test [1], the binding entry is recorded as “binds”.
As to “GATOR2 complex (co-transfected components) (from UniProt Q9NXC5 1-875; Q96S15 1-790; Q6PJI9 1-974; Q96EE3 1-360; P55735 1-322)”, the binding result in the test with Flag-tagged NPRL2 and with Sestrin1 was “binds” throughout.
With “GATOR1 complex (co-transfected components) (from UniProt O75140 1-1603; Q8WTW4 1-380; Q12980 1-569)”, the binding result with Flag-tagged WDR24 is listed as “binds”.
In the case of “DEPDC5 (transfected) (from UniProt O75140 1-1603)”, the binding entry with Flag-tagged Sestrin2 is given as “no binding”.
